Screening data, single-dose tests

Amino acid sequences for entries named in this document (tags omitted). Residues count along the entry.
UniProt A4I591, 1-473: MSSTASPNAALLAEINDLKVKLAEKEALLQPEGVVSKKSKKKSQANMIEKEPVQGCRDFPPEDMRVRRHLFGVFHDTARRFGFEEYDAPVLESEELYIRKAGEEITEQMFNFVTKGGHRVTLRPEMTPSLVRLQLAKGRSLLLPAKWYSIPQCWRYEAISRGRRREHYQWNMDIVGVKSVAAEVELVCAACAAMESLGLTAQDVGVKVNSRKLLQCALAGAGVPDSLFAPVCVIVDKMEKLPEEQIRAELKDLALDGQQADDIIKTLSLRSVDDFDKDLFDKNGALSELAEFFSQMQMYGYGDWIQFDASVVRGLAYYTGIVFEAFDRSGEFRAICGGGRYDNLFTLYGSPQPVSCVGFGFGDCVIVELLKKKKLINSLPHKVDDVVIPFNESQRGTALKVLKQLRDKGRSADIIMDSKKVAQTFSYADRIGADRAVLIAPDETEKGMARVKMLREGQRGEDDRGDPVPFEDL

Source: ChEMBL document CHEMBL3988442, “University of Dundee, Small-Polar-MMV Screening Library” (2021).

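Histidine-tRNA ligase, Leishmania infantum (UniProt A4I591). Enzyme assay of histidyl-tRNA synthetase; the read-out is not stated. Compounds at 30 µM. Higher reads as stronger inhibition (inferred: compounds with an IC50 in retests scored well above the rest). The assay is labelled LdHisRS but filed under L. infantum. About 69,000 compounds were tested under these conditions; 0.6% (about 410) showed 50% or more at least once.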

The filed quantity is “Percent Effect” (%). The record does not define 0% and 100%; most values in the screen are far below 50% and negative numbers occur (in some assays of this library far below -100). The compounds are a random part of those screened.

structure | percent effect
Cn1ccnc1CN1CCCN(C(=O)c2ccc3c(c2)COC3)CC1 | 16.67
O=C1NCC2(CCCN(C(=O)CCn3cnc4ccccc43)CC2)O1 (centres unmarked) | 12.9
CC(Cn1cccn1)NC(=O)NCc1cccnc1OC1CCCC1 (centres unmarked) | 22.97
COc1cc(C(=O)N2CCCC(CNS(C)(=O)=O)C2)ccc1C (centres unmarked) | 14.91
COc1cc(C)ccc1OCC(=O)NS(=O)(=O)c1ccc(Br)s1 | -1.709
COc1cc2c(cc1C(=O)N1CCCCC1c1ccccn1)CCC2 (centres unmarked) | 10.39
CC(=O)NCC(=O)N(CCc1ccccc1)C1CCOC1 (centres unmarked) | 15.97
CN(C)CCn1ccnc1C1CCN(C(=O)CCc2ccncc2)CC1 | 14.88
Cn1c(C2CC2)nc2c1CCN(CCOc1ccccc1C#N)C2 | 21.43
COCCN1CCO[C@@H]2CN(C(=O)c3ccc4[nH]ccc4c3)CC[C@@H]2C1 | 18
CS(=O)(=O)N1Cc2nccn2CC(Cn2ncccc2=O)C1 (centres unmarked) | 20.75
COc1cc(C)nc(N2CCN(C(=O)CN(C)C3CC3)CC2)n1 | 0
COCC(=O)N1CCCn2c(CN3CCCC3=O)nnc2C1 | 18.09
NC(=O)C1CCN(C(=O)CCCc2ccc(Cl)c(Cl)c2)CC1 | 5.714
Cc1ccc(C2(C(=O)N3CCC(n4cc(C(C)O)nn4)CC3)CC2)cc1 (centres unmarked) | 10.83
CCNC(=O)C(C)(C)NC(=O)NCc1cccc(Br)c1 | 19.74
CCC(O)CN(CC(=O)Nc1cc(C)no1)c1ccccc1 (centres unmarked) | 17.2
Cc1cc(NC(=O)NCCc2ccc(S(N)(=O)=O)cc2)n(C)n1 | 24.24
COC(=O)N1CC(C)=C(C)CN1C(=O)Nc1ccc(Cl)cc1 | 16.49
Cc1cccc(Cn2c(=O)[nH]c3csnc3c2=O)c1 | 1.099
COc1ccccc1C1(CNc2nnc(C)c(C)c2C#N)CCCC1 | 23.29
O=C1[C@H]2CN(c3ncccn3)C[C@H]2CN1CCN1CCCC1 | 12.35
CCN1CCN(C(=O)c2cnc(Cc3c(Cl)cccc3Cl)nc2O)CC1 | 10.67
CC(c1ccco1)N(C)Cc1nc2c(cnn2C)c(=O)[nH]1 (centres unmarked) | 24.62
Cn1nnnc1SCCNC(=O)c1c[nH]nc1C1CCCCC1 | 11.67
CC(CNC(=O)c1c[nH]nn1)Oc1ccccc1Br (centres unmarked) | 6.452
CCSc1cc(C(=O)NCC(C)(C)N(C)C)ccn1 | 2.469
CC(=O)N1CCCN(C(=O)NCc2ccc(Cl)s2)CC1 | 9.565
COC(=O)c1ccc(CNCc2cn(C)nc2C)cc1 | 10.31
CSCC[C@H](NC(=O)CCn1ccc2c(Cl)cccc21)C(=O)O | 15.79
Cn1nc(-c2ccccc2NC(=O)c2cncc(Br)c2)ccc1=O | -6.957
O=C(CN1CCCC1c1nc2cc(F)ccc2[nH]1)NCc1ccccn1 (centres unmarked) | 20.8
O=C(Cn1ccc2ccccc21)NC[C@@H]1CCCN2CCCC[C@H]12 | 18.48
O=C(NCC(Cc1cccc(F)c1)N1CCCC1=O)c1ccccc1 (centres unmarked) | 11.54
COC(=O)C(C)NCc1ccc2[nH]c(C)c(C)c2c1 (centres unmarked) | -2.222
COc1ccc2c(c1)OCC(Cc1ccc(N(C)C)nc1)C2 (centres unmarked) | 15.15
Cc1ccc(S(=O)(=O)N(C)Cc2nccs2)cc1N(C)C | -6.25
O=C(NCCn1nc(-n2cncn2)ccc1=O)c1ccccc1Br | 19.57
CC(=O)c1cc(Br)cc(F)c1OCC(=O)NC(C)C | 10.2
CN1CC(=O)N(c2ccccc2)CC12CCN(Cc1cccnc1)C2 (centres unmarked) | -5.714
Cn1nnc2c(N3CC(C(=O)NCc4ccccc4F)C3)ncnc21 | 21.95
Cc1nnc(N2CC[C@H]3C[C@@H](C(=O)NC4CCCC4)O[C@H]3C2)s1 | 0
CCc1nc(N)nc(N2CCCC3(CN(C)C(=O)O3)C2)c1C (centres unmarked) | 8.772
COc1cccc(C(=O)N2CC[C@@H]3[C@H](CC2)N(C)CCS3(=O)=O)c1 | 14.47
Cc1nc2c(c(N3CCC(CCn4cccn4)CC3)n1)CCNCC2 | -8.333
CCc1noc(CN2CCN(C(=O)Cc3ccc(F)cc3)CC2)n1 | 13.33
CCc1nnc2n1CCN(Cc1ncc(-c3ccccc3)o1)C2 | 5.357
CN1CCNC(=O)C12CCN(Cc1ccco1)CC2 | 10.09
CC(C)c1nc2c(n1C)CCN(CC(=O)Nc1ccnn1C(C)C)C2 | 13.27
CCN(Cc1ccncc1)Cc1cn(-c2ccccc2)nn1 | 29.79
O=C(c1csc(-c2ccco2)n1)N1CCN2CCCCC2C1 (centres unmarked) | 17.46
Cc1nn(C)c(C)c1-c1ccc(=O)n(C(C)C(=O)NC2CC2)n1 (centres unmarked) | 4.196
Cc1ncsc1C(=O)NCCCN1CCCCCC1=O | 13.25
Cc1noc(C)c1CN1CCn2cc(CNC(=O)C3CCC3)nc2C1 | 14.29
Cc1nnc(CN(Cc2cccc(Br)c2)C2CC2)o1 | 12.7
Cn1cc(C2CCCN2C(=O)COCCOc2ccccc2)cn1 (centres unmarked) | 10.91
O=C(c1ccc[nH]1)N1CCO[C@]2(CCC[C@@H]2COc2cccnc2)C1 | 22.86